From paper PMC4104448
No constants are given. Whether binding was seen depends on the method and setting. For some assays here: In cells and extracts the contact can be indirect. For some assays here: Sequences can lack the tags named with a protein. Some entries that bind do so weakly or less than the wild type.

Protein sequences, listed by entry. Tags and fused reporters are not part of them. Lines headed by an entry give the natural chain unless they say otherwise; changes in a name come on top. Chains listed by the source or under a name are the forms on record and can include a tag or linker. Residues count along the entry.
UniProt P11717: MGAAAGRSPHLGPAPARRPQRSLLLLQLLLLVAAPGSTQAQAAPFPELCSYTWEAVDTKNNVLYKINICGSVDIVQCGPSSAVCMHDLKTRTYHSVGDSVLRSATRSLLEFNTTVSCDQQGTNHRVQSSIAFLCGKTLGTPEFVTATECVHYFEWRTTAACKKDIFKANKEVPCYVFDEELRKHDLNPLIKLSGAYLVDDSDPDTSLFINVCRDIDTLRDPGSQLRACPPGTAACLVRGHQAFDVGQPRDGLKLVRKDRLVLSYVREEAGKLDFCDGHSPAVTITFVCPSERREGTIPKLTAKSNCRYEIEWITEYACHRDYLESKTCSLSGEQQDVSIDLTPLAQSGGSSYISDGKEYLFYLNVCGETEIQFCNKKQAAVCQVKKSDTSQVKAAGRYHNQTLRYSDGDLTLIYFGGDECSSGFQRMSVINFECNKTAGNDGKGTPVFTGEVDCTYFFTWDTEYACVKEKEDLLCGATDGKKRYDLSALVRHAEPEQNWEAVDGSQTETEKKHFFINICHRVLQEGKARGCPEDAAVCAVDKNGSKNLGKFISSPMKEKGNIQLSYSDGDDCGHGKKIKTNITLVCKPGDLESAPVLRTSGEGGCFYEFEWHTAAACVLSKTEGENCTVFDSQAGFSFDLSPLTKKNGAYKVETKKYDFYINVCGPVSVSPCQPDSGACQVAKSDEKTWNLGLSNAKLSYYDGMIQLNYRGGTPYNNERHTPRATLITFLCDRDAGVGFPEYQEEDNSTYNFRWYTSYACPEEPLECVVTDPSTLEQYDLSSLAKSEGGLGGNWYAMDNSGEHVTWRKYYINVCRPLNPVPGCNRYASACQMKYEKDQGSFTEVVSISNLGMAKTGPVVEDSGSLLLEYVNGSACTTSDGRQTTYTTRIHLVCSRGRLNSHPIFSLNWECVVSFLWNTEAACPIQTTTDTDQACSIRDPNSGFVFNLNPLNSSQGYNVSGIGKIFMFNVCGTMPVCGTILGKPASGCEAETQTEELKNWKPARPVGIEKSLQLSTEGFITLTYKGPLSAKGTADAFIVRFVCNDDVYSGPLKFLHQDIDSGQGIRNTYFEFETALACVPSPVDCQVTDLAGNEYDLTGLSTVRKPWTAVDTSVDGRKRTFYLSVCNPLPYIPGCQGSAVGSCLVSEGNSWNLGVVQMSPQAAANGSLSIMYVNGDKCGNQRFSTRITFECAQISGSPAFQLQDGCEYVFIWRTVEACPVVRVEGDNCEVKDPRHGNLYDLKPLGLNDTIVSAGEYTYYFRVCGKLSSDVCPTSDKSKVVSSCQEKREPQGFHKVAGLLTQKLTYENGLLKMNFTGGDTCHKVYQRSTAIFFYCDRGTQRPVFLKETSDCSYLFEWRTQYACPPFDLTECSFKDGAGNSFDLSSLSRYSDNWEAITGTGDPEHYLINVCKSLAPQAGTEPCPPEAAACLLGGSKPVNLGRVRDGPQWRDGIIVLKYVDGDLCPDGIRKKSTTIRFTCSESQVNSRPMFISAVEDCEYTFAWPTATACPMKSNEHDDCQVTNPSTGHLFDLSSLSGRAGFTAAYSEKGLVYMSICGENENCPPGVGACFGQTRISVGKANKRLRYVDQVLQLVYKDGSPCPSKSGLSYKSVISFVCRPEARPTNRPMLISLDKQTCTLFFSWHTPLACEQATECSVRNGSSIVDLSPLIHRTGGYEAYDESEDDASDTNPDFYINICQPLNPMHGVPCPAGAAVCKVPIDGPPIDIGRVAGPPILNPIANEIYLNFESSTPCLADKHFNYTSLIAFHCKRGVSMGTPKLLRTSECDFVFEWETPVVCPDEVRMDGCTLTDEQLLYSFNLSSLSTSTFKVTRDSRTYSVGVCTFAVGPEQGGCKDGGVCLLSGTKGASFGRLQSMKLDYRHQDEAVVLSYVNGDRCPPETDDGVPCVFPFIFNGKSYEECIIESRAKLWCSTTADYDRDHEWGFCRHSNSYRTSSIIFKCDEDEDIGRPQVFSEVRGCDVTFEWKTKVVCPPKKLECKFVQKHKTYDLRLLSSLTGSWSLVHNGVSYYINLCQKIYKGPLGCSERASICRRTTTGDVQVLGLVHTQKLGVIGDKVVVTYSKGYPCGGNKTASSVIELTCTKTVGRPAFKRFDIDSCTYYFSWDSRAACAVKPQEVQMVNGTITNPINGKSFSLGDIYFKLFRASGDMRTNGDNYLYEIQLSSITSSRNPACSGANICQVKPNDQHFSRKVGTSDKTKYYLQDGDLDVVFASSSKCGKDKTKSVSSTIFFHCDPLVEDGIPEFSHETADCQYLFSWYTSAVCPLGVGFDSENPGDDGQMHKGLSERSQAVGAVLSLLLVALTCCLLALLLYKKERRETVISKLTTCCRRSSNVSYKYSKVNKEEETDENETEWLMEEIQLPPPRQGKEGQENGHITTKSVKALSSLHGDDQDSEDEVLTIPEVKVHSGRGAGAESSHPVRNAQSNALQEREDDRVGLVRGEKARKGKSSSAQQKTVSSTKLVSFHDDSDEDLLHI
Full-length human CI-MPR (residues Q41-I2491) tagged at its C-terminal end with mVenus: residues 41-2491 of P11717
CI-MPR domains I-III (residue Q41-L489) with Rhodopsin 1D4 tag: residues 41-489 of P11717

Columns and labels:
[1] = molecular target: CI-MPR domains I-III (residue Q41-L489) with Rhodopsin 1D4 tag (human) (UniProt P11717); experiment: SPR; biotinylated β-GCase on a CM5 chip; LIMP-2 mixed 1:1 with CI-MPR domains I-III, or the same amount of LIMP-2 mixed with BSA, flowed over the chip
[2] = molecular target: Full-length human CI-MPR (residues Q41-I2491) tagged at its C-terminal end with mVenus (human) (UniProt P11717); experiment: FRET or BRET; FLIM-FRET in living COS 7 cells co-transfected with donor (mTFP1 fusion) and acceptor (mVenus fusion); time correlated single photon counting, 440-nm pulsed laser

Binder	binding [1]	binding [2]
Wild-type LIMP-2 (soluble luminal domain; producing cells not stated for the experiment) (domain or fragment, UniProt Q14108 28-431) VFQKAVDQSIEKKIVLRNGTEAFDSWEKPPLPVYTQFYFFNVTNPEEILRGETPRVEEVGPYTYRELRNKANIQFGDNGTTISAVSNKAYVFERDQSVGDPKIDLIRTLNIPVLTVIEWSQVHFLREIIEAMLKAYQQKLFVTHTVDELLWGYKDEILSLIHVFRPDISPYFGLFYEKNGTNDGDYVFLTGEDSYLNFTKIVEWNGKTSLDWWITDKCNMINGTDGDSFHPLITKDEVLYVFPSDFCRSVYITFSDYESVQGLPAFRYKVPAEILANTSDNAGFCIPEGNCLGSGVLNVSICKNGAPIIMSFPHFYQADERFVSAIEGMHPNQEDHETFVDINPLTGIILKAAKRFQINIYVKKLDDFVETGDIRTMVFPVMYLNESVHIDKETASRLKSMINT	binds	–
Full-length human LIMP-2 N325Q tagged at its C-terminal end with mTFP1 (protein, UniProt Q14108 1-478) MGRCCFYTAGTLSLLLLVTSVTLLVARVFQKAVDQSIEKKIVLRNGTEAFDSWEKPPLPVYTQFYFFNVTNPEEILRGETPRVEEVGPYTYRELRNKANIQFGDNGTTISAVSNKAYVFERDQSVGDPKIDLIRTLNIPVLTVIEWSQVHFLREIIEAMLKAYQQKLFVTHTVDELLWGYKDEILSLIHVFRPDISPYFGLFYEKNGTNDGDYVFLTGEDSYLNFTKIVEWNGKTSLDWWITDKCNMINGTDGDSFHPLITKDEVLYVFPSDFCRSVYITFSDYESVQGLPAFRYKVPAEILANTSDNAGFCIPEGNCLGSGVLQVSICKNGAPIIMSFPHFYQADERFVSAIEGMHPNQEDHETFVDINPLTGIILKAAKRFQINIYVKKLDDFVETGDIRTMVFPVMYLNESVHIDKETASRLKSMINTTLIITNIPYIIMALGVFFGLVFTWLACKGQGSMDEGTADERAPLIRT	–	no binding
